For the experiment, the target named is T1, human VEGFR-1/Fc (R&D Systems) (human, UniProt P17948 27-756, limits assumed).
T1 construct: Bought reagent, coated on the ELISA plate; also called receptor Flt-1; not shown: Fc part of the bought fusion
In words: ELISA: VEGFR-1/Fc coated, PlGF-1 diluted two-fold from 20 ng/ml, detected with biotinylated anti-human PlGF antibodies. Here is the method:
To test receptor binding, an ELISA assay was performed according to the following protocol: [0141] 1. Well of 96-well microtiter plate were coated with 200 μl of 1 μg/ml human VEGFR-1/Fc (R&D Systems) and incubated overnight at 4° C. [0142] 2. Two-fold dilution series starting at 20 ng/ml of various preparations of recombinant human PlGF-1 were prepared and added in a volume of 100 μl per well. The plate was incubated for 2 hours at room temperature. [0143] 3. Bound PlGF-1 was captured with biotinylated anti-human PlGF antibodies (R&D Systems) added in a volume of 100 μl per well for 1 hour at room temperature. [0144] 4. A 1:200 dilution of horseradish peroxidase-conjugated streptavidin (R&D Systems) was added and incubated for 20 min. at room temperature. [0145] 5. Substrate solution (TMB from Pierce) was added and after 15 min. the reaction was quenched with 2 M sulfuric acid. [0146] 6. The absorbance was measured at 450 nm.

Protein sequences, listed by entry. Tags and fused reporters are not part of them. Residues count along the entry.
UniProt P17948, residues 27-756: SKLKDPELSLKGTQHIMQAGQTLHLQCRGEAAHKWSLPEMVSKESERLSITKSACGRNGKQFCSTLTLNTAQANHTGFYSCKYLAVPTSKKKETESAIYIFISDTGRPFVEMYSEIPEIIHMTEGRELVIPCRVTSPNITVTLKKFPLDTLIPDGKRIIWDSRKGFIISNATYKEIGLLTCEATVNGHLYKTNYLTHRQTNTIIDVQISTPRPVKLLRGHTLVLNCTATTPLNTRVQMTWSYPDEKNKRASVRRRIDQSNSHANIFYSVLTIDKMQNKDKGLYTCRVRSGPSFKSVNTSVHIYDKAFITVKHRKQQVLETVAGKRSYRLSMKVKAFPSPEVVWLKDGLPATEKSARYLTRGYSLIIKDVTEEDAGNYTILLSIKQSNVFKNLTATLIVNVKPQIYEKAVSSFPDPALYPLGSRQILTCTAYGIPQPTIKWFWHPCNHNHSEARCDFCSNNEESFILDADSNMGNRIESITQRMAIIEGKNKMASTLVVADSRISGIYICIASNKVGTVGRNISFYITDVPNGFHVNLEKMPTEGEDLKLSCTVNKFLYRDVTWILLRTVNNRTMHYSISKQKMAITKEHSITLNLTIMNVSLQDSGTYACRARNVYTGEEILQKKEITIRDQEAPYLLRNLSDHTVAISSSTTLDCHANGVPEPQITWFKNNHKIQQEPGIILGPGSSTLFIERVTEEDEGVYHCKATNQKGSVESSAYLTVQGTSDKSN

Where a chain is given by its changes, count along the chain named. These are yes or no findings as the source states them, for the method shown. Some results given as binding are weak or reduced against the parent protein; the word gives no strength.

B1: wild-type recombinant human PlGF-1, preparation R-HPG-P08 (Eurogentec) (ligand)
chain: MLPAVPPQQWALSAGNGSSEVEVVPFQEVWGRSYCRALERLVDVVSEYPSEVEHMFSPSCVSLLRCTGCCGDENLHCVPVETANVTMQLLKIRSGDRPSYVELTFSQHVRCECRPLREKMKPERCGDAVPRR
With B1, the binding entry is “binds”.

B2: wild-type recombinant human PlGF-1, preparation R-HPG-P16 (Eurogentec) (ligand)
chain: B1 chain
In the case of B2, the binding entry was “binds”.

B3: PlGF-1 mutein from Geymonat (recombinant human PLGF-1CG) (ligand)
chain: B1 chain with C125G
notes: Described as 'a PlGF-1 mutein embodiment of the present invention'; also called Geymonat Mutein; Mutein Geymonat
Regarding B3, the binding entry is on record as “binds”.

Values taken from patent US20090082268A1 (GEYMONAT S P A, published 2009).
